Measured values reported in publication PMC2766050.
Changes are numbered by the printed parent chain. Results are given in words; binding and its absence hold for the method and conditions named. In cells and extracts the contact can be indirect. Some results given as binding are weak or reduced against the parent protein; the word gives no strength. Sequences can lack the tags named with a protein.

Sequences of proteins named here, by UniProt entry; tags and fusion partners are left off.
UniProt P92208: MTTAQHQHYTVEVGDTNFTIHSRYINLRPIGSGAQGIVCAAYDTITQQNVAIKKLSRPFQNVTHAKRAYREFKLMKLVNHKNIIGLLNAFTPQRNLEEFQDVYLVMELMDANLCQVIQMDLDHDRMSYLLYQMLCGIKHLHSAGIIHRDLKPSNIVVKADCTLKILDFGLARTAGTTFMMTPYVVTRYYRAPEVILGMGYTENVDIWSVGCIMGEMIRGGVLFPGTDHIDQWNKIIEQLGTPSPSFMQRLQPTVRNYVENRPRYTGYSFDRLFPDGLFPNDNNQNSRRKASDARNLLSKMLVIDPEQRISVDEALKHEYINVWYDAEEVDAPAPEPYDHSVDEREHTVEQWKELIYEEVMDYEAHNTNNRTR

B1: C-terminally FLAG tagged dTAK1 (enzyme, UniProt Q9V3Q6 1-678)
chain: MATASLDALQAAYVDFSEITLREKVGHGSYGVVCKAVWRDKLVAVKEFFASAEQKDIEKEVKQLSRVKHPNIIALHGISSYQQATYLIMEFAEGGSLHNFLHGKVKPAYSLAHAMSWARQCAEGLAYLHAMTPKPLIHRDVKPLNLLLTNKGRNLKICDFGTVADKSTMMTNNRGSAAWMAPEVFEGSKYTEKCDIFSWAIVLWEVLSRKQPFKGIDNAYTIQWKIYKGERPPLLTTCPKRIEDLMTACWKTVPEDRPSMQYIVGVMHEIVKDYTGADKALEYTFVNQQIVTKESDGTVAAQPDSLSSQEGELSPSSTQLTPTTAANANVNAIAISKTTTSSMTENTSSTSSDITPTNSGQLDNNPLFYMVTNRWDAIPEEESNESRNDSFNLTSSAEATQRLETIRNGMILMACKPMEQLTLDVEANGFDLSPSESSSSSTNAKSDGRERLTVTDTKPVMMTTDLSNNNGGIHAHSNGLLSHANGWQARDEELQEQEHEQEIVNSLDVDVDPDEDENDGTEQSLAEILDPELQPEPPIPNDAESQLIYRDHRHMAKEYLSVDTNLYYAQDFKDKLIVQMDRTEREQKQELLRKMKDKEGLQSLYNNLQQQYASRQLAAGHHPQPHPHPHPNQLQHPHSHPPMHFLQDEGCGLLPGSVCGGSESVEEGWVVIPPHHNA

What was measured:
[1] = molecular target: T1, HA tagged Mkk4^Asp (Drosophila) (UniProt O61444); test: co-IP; S2 cells co-transfected with expression vectors; lysis in 150 mM NaCl, 50 mM Tris-HCl pH 8.0, 1% Nonidet P-40, 0.5% deoxycholic acid; anti-HA antibody and Protein-A sepharose, 4°C overnight; blot with anti-FLAG M2
T1 sequence: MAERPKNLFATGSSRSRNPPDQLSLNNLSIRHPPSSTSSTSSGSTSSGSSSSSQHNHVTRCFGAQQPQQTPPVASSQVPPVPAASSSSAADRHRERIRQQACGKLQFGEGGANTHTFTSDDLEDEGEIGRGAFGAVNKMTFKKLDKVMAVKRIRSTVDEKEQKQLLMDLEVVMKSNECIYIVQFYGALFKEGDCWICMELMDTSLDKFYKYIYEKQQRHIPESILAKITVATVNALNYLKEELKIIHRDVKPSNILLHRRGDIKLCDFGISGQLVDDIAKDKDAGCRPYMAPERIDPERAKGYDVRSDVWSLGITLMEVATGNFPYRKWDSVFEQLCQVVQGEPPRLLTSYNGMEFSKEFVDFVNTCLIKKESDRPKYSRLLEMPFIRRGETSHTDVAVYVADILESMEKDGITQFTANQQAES

[2] = molecular target: T2, N-terminally HA tagged Mkk4 (Drosophila) (UniProt O61444); test: as above
T2 sequence: T1 sequence with D277S, D281T

Molecule | binding [1] | binding [2]
C-terminally FLAG tagged Bsk (from UniProt P92208 1-372) (enzyme) | no binding | binds
B1 | binds | binds
